Patent US20180258123A1, “Suppressors of Premature Termination Codons as Therapeutics and Methods for Their Use” (The University of British Columbia, priority 2015, published 2018)

System: HDQ-P1 cells, full-length p53
Assay: p53 read-through assay with steroids (western blotting, FIG. 4)
Type: cell-based, human
Protocol: HDQ-P1 cells were seeded at 100,000 cells per well of TC-treated 6-well plates. The next day, the medium was replaced with fresh medium containing compounds to be tested and were incubated for 48 to 96 h. The medium was removed by aspiration, cell monolayers were rinsed with 1 ml ice-cold PBS. Cells were lysed in 80 μl lysis buffer (20 mM Tris-HCl pH 7.5, 150 mM NaCl, 1 mM EDTA, 1 mM EGTA, 1% (v/v) Triton […], 2.5 mM sodium pyrophosphate, 1 mM beta-glycerophosphate supplemented with fresh 1 mM Na3VO4, 1 mM dithiothreitol and 1× complete protease inhibitor cocktail (Roche Molecular BiochemicalsTM)). Lysates were pre-cleared by centrifugation at 18,000 g for 15 min at 4° C. Supernatants were collected, protein was quantitated using the Bradford assay and lysates were adjusted to 1 mg/ml protein. Capillary electrophoresis and western analysis conditions were carried out with manufacturer's reagents according to the user manual (ProteinSimple WESTM). Briefly, 5.6 μl of cell lysate was mixed with 1.4 μl fluorescent master mix and heated at 95° C. for 5 min. The samples, blocking reagent, wash buffer, DO-1 p53 antibody (0.5 μg/ml) and vinculin antibody (1:2000, R&D clone 728526), secondary antibody and chemiluminescent substrate were dispensed into the microplate provided by the manufacturer. […] The data was analyzed with inbuilt CompassTM software (ProteinsimpleTM). […]

For C[C@H]1C[C@H]2[C@@H]3CCC4=CC(=O)C=C[C@]4(C)[C@@]3(F)[C@@H](O)C[C@]2(C)[C@@]1(O)C(=O)CO [Betamethazone, Betamethasone], the “read-through activity of steroid alone” value was “no read-through activity”.
